This passage reports binding results from paper PMC8855804.

The target of test [1] is T1, ADAM8 (metalloproteinase-disintegrin 8), endogenous (human (endogenous in hPMN and HL-60)) (UniProt P78325).
T1 sequence: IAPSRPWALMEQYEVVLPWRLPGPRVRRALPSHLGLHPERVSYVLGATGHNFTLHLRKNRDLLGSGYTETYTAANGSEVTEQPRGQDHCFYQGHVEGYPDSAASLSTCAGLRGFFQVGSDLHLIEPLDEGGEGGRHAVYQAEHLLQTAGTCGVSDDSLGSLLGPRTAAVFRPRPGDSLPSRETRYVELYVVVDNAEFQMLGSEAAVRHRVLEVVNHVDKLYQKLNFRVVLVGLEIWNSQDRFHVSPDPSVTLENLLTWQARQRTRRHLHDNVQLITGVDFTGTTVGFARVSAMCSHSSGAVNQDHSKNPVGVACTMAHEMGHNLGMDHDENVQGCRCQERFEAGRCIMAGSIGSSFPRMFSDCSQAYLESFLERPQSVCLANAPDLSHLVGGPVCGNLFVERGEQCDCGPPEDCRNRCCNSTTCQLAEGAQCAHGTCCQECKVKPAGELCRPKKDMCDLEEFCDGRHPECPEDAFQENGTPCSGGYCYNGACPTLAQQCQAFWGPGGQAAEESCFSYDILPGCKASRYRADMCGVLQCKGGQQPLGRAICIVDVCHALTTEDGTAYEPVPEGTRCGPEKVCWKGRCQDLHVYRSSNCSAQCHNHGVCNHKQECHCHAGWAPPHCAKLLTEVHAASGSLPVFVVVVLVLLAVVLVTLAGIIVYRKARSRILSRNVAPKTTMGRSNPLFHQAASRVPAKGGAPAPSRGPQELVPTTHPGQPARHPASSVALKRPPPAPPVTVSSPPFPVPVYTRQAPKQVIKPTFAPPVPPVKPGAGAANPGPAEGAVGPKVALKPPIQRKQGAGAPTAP
In words: co-IP; HL-60 cells; polyclonal ADAM8 antibody coupled to magnetic beads, blot for Myo1f; controls: beads with control IgG, unconjugated beads.

Test [2] deals with T1, ADAM8 (metalloproteinase-disintegrin 8), endogenous (human (endogenous in hPMN and HL-60)). The test is described as follows: co-IP; activated human neutrophils (hPMN, stimulated with TNF-alpha); polyclonal ADAM8 antibody coupled to magnetic beads, blot for Myo1f; controls: beads with control IgG, unconjugated beads; also after preincubation with BK-1361 or control peptide, MAB1031, or a 2-aminoquinoline-based SH3 domain inhibitor.

Test [3] addresses T2, intracellular domain of human ADAM8 (human) (UniProt P78325).
T2 sequence: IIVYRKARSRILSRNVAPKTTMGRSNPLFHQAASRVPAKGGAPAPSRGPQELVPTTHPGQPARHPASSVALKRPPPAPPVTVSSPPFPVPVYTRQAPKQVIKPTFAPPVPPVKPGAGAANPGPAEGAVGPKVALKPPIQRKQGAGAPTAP
In words: two-hybrid; yeast two-hybrid screen, ADAM8 intracellular domain against the Matchmaker human leukocyte cDNA library; yeast strains HF7c and SFY; beta-galactosidase filter assay.

Results are given in words; binding and its absence hold for the method and conditions named. For part of these data: Binding seen in cells or lysates may run through a third protein. Some entries that bind do so weakly or less than the wild type.

B1: Myosin1f, endogenous (protein, UniProt O00160 1-1098)
chain: MGSKERFHWQSHNVKQSGVDDMVLLPQITEDAIAANLRKRFMDDYIFTYIGSVLISVNPFKQMPYFTDREIDLYQGAAQYENPPHIYALTDNMYRNMLIDCENQCVIISGESGAGKTVAAKYIMGYISKVSGGGEKVQHVKDIILQSNPLLEAFGNAKTVRNNNSSRFGKYFEIQFSRGGEPDGGKISNFLLEKSRVVMQNENERNFHIYYQLLEGASQEQRQNLGLMTPDYYYYLNQSDTYQVDGTDDRSDFGETLSAMQVIGIPPSIQQLVLQLVAGILHLGNISFCEDGNYARVESVDLLAFPAYLLGIDSGRLQEKLTSRKMDSRWGGRSESINVTLNVEQAAYTRDALAKGLYARLFDFLVEAINRAMQKPQEEYSIGVLDIYGFEIFQKNGFEQFCINFVNEKLQQIFIELTLKAEQEEYVQEGIRWTPIQYFNNKVVCDLIENKLSPPGIMSVLDDVCATMHATGGGADQTLLQKLQAAVGTHEHFNSWSAGFVIHHYAGKVSYDVSGFCERNRDVLFSDLIELMQTSEQAFLRMLFPEKLDGDKKGRPSTAGSKIKKQANDLVATLMRCTPHYIRCIKPNETKRPRDWEENRVKHQVEYLGLKENIRVRRAGFAYRRQFAKFLQRYAILTPETWPRWRGDERQGVQHLLRAVNMEPDQYQMGSTKVFVKNPESLFLLEEVRERKFDGFARTIQKAWRRHVAVRKYEEMREEASNILLNKKERRRNSINRNFVGDYLGLEERPELRQFLGKRERVDFADSVTKYDRRFKPIKRDLILTPKCVYVIGREKVKKGPEKGQVCEVLKKKVDIQALRGVSLSTRQDDFFILQEDAADSFLESVFKTEFVSLLCKRFEEATRRPLPLTFSDTLQFRVKKEGWGGGGTRSVTFSRGFGDLAVLKVGGRTLTVSVGDGLPKSSKPTRKGMAKGKPRRSSQAPTRAAPAPPRGMDRNGVPPSARGGPLPLEIMSGGGTHRPPRGPPSTSLGASRRPRARPPSEHNTEFLNVPDQGMAGMQRKRSVGQRPVPGVGRPKPQPRTHGPRCRALYQYVGQDVDELSFNVNEVIEILMEDPSGWWKGRLHGQEGLFPGNYVEKI
For B1, the binding entry in test [1] and in test [2] was “binds” in each case.

B2: Myo1f clone BP19 (SH3 domain, aa 1032-1098) (domain or fragment, UniProt O00160 1032-1098)
chain: VGRPKPQPRTHGPRCRALYQYVGQDVDELSFNVNEVIEILMEDPSGWWKGRLHGQEGLFPGNYVEKI
Turning to B2, in test [3], the binding entry is given as “binds”.
